The list shows a part of the results. Many values rest on one well or one pass, so single values are uncertain.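 The apoptosis fraction was the count of cleaved-PARP antibody-stained nuclei relative to all DNA-stained nuclei, imaged in 1,536-well plates. Screening doses were set so most cells survived, and baseline and induced cleaved-PARP levels vary greatly across cell lines.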

The subject of the assay is RVH-421. Briefly: cleaved PARP positive nuclei fraction relative to DMSO control; melanoma cells; higher = more apoptosis. As to conditions: library dose: low library concentration; 72 h.
Turning to `C[C@]12O[C@H](C[C@]1(O)CO)n1c3ccccc3c3c4c(c5c6ccccc6n2c5c31)CNC4=O` [Lestaurtinib] + CCN(CC)CCCCNc1ncc2cc(-c3cc(OC)cc(OC)c3)c(NC(=O)NC(C)(C)C)nc2n1 [PD173074] (first compound 0.004 µM, partner dose 0.1 µM), the “cleaved PARP positive nuclei fraction” value amounted to 128%. As for `N#Cc1c(O)c2c(-c3ccc(-c4ccccc4O)cc3)csc2[nH]c1=O` + O=C(Oc1ccc([N+](=O)[O-])cc1)N1CCC(C(O)(c2ccc3c(c2)OCO3)c2ccc3c(c2)OCO3)CC1 [JZL184] (first compound 2 µM, partner dose 1 µM), the “cleaved PARP positive nuclei fraction” value stood at 40.9%. With `C[C@]12O[C@H](C[C@]1(O)CO)n1c3ccccc3c3c4c(c5c6ccccc6n2c5c31)CNC4=O` [Lestaurtinib] + O=c1cc(-c2cccc3c2Sc2ccccc2S3)oc(N2CCOCC2)c1 [KU55933] (first compound 0.004 µM, partner dose 1 µM), the “cleaved PARP positive nuclei fraction” value was found to be 174%.

With `CCc1ccc(CCOc2ccc(CC3SC(=O)NC3=O)cc2)nc1` (centres undefined) [pioglitazone] + O=C(Oc1ccc([N+](=O)[O-])cc1)N1CCC(C(O)(c2ccc3c(c2)OCO3)c2ccc3c(c2)OCO3)CC1 [JZL184] (first compound 2 µM, partner dose 1 µM), the “cleaved PARP positive nuclei fraction” value was found to be 71.4%. For the compound `COc1cc2c(Oc3ccc4[nH]c(C)cc4c3F)ncnc2cc1OCCCN1CCCC1` [cediranib] + Cc1cc(SCc2sc(-c3ccc(C(F)(F)F)c(F)c3)nc2C)ccc1OCC(=O)O [GW0742] (first compound 0.4 µM, partner dose 2 µM), the “cleaved PARP positive nuclei fraction” value is 62%. As to `Cc1cc(SCc2sc(-c3ccc(C(F)(F)F)c(F)c3)nc2C)ccc1OCC(=O)O` + O=C(Oc1ccc([N+](=O)[O-])cc1)N1CCC(C(O)(c2ccc3c(c2)OCO3)c2ccc3c(c2)OCO3)CC1 [JZL184] (first compound 2 µM, partner dose 1 µM), the “cleaved PARP positive nuclei fraction” value was 115%. As for `Cc1cc(SCc2sc(-c3ccc(C(F)(F)F)c(F)c3)nc2C)ccc1OCC(=O)O` + COc1cc(N2CCC(N3CCN(C)CC3)CC2)ccc1Nc1ncc(Cl)c(Nc2ccccc2S(=O)(=O)C(C)C)n1 [NVP-TAE684] (first compound 2 µM, partner dose 0.08 µM), the “cleaved PARP positive nuclei fraction” value is 20.8%. For the compound `C[C@]12O[C@H](C[C@]1(O)CO)n1c3ccccc3c3c4c(c5c6ccccc6n2c5c31)CNC4=O` [Lestaurtinib] + COC(=O)c1sccc1S(=O)(=O)Nc1ccc(Nc2ccccc2)cc1OC [GSK0660] (first compound 0.004 µM, partner dose 1 µM), the “cleaved PARP positive nuclei fraction” value is 73.4%.

Take `C[C@]12O[C@H](C[C@]1(O)CO)n1c3ccccc3c3c4c(c5c6ccccc6n2c5c31)CNC4=O` [Lestaurtinib] + CC1(C)NC(=O)N(c2ccc([N+](=O)[O-])c(C(F)(F)F)c2)C1=O [nilutamide] (first compound 0.004 µM, partner dose 1 µM): the “cleaved PARP positive nuclei fraction” value came to 180%.

Turning to `O=C1NC(=O)/C(=C/c2ccc(-c3ccc(F)cc3O)o2)S1` + O=C(Oc1ccc([N+](=O)[O-])cc1)N1CCC(C(O)(c2ccc3c(c2)OCO3)c2ccc3c(c2)OCO3)CC1 [JZL184] (first compound 1 µM, partner dose 1 µM), the “cleaved PARP positive nuclei fraction” value came to 78.1%. For `Oc1cc(-c2nc(-c3ccccc3)[nH]c2-c2ccncc2)ccc1Cl` + O=C(Oc1ccc([N+](=O)[O-])cc1)N1CCC(C(O)(c2ccc3c(c2)OCO3)c2ccc3c(c2)OCO3)CC1 [JZL184] (first compound 0.2 µM, partner dose 1 µM), the “cleaved PARP positive nuclei fraction” value worked out at 87.9%.

For the compound `C[C@]12O[C@H](C[C@]1(O)CO)n1c3ccccc3c3c4c(c5c6ccccc6n2c5c31)CNC4=O` [Lestaurtinib] + O=S(=O)(c1ccccc1)N(CC(F)(F)F)c1ccc(C(O)(C(F)(F)F)C(F)(F)F)cc1 [T0901317] (first compound 0.004 µM, partner dose 1.4 µM), the “cleaved PARP positive nuclei fraction” value turned out to be 160%. As to `NCC(=O)Nc1ccc(-n2nc(C(F)(F)F)cc2-c2ccc3c(ccc4ccccc43)c2)cc1` + O=C(Oc1ccc([N+](=O)[O-])cc1)N1CCC(C(O)(c2ccc3c(c2)OCO3)c2ccc3c(c2)OCO3)CC1 [JZL184] (first compound 1 µM, partner dose 1 µM), the “cleaved PARP positive nuclei fraction” value turned out to be 97.2%.

On to `C[C@@H]1CCN(C(=O)CC#N)C[C@@H]1N(C)c1ncnc2[nH]ccc12` + C/C(O)=C(\C#N)C(=O)Nc1cc(Br)ccc1Br [LFM-A13] (first compound 1 µM, partner dose 2 µM), for which the “cleaved PARP positive nuclei fraction” value was 103%.

These data come from the supplement of paper PMC4604168 (melanoma cell lines).
